These are yes or no findings as the source states them, for the method shown. For some assays here: Binding seen in cells or lysates may run through a third protein. Some binding calls cover weakened binding; strength is not graded here. Sequences can lack the tags named with a protein.
T1: eGFP-tagged RAD51AP1 (human) (UniProt Q96B01)
T1 sequence: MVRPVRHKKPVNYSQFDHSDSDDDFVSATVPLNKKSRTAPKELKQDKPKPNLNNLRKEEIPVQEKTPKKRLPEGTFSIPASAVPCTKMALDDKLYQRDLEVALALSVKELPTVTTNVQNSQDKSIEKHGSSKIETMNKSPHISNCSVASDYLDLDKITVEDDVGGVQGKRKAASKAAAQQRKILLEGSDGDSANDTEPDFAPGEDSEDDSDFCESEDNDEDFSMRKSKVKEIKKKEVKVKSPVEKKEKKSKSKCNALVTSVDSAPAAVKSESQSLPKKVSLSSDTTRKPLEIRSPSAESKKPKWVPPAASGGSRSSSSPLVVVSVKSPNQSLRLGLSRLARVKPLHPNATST

The chains behind the UniProt entries cited, without tags or fusion partners.
UniProt Q06609: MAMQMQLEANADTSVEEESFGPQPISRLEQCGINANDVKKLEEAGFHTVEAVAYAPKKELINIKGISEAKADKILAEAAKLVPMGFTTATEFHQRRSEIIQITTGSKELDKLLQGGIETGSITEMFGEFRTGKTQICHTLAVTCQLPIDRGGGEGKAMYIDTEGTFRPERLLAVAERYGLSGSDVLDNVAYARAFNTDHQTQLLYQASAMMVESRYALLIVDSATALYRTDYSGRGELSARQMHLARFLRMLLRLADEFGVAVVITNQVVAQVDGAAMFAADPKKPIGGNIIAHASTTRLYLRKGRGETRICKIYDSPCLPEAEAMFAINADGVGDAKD

T2: FLAG-tagged RAD51AP1 (human) (UniProt Q96B01)
T2 sequence: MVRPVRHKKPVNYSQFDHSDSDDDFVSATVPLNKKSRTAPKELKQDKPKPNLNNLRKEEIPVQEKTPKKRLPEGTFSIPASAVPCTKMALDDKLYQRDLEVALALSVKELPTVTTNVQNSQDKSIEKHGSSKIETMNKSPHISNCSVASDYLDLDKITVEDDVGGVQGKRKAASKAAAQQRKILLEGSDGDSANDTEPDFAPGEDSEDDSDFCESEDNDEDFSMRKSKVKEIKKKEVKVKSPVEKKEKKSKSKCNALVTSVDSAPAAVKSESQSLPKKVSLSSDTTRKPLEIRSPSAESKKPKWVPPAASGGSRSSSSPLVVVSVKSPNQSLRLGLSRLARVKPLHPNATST

T3: (His)6-RAD51AP1-FLAG (human) (UniProt Q96B01)
T3 sequence: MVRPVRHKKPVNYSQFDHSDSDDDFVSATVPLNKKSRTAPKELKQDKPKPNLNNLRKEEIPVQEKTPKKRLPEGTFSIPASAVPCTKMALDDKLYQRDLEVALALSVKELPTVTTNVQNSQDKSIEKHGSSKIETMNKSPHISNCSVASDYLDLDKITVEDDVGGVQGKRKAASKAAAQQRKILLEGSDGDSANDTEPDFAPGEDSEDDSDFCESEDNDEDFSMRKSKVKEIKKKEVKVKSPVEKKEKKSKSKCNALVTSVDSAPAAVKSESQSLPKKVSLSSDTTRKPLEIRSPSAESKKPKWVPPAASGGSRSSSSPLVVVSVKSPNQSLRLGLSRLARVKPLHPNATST


Tests used:
[1] = target: T1, eGFP-tagged RAD51AP1 (human); assay: co-IP; GFP-Trap dynabeads hold the eGFP protein from lysates of transfected HeLa KO cells; 50 mM Tris-HCl pH 7.5, 150 mM NaCl, 0.1% NP-40, DNase I, 4°C, 1 h; Western blot; cells untreated, or 4 and 20 h after 2 h of 0.5 µM MMC, or after 1 day in 10 µM olaparib
[2] = target: T2, FLAG-tagged RAD51AP1 (human); assay: co-IP; anti-RAD51AP1 complexes of RAD51AP1 KO cells stably expressing FLAG-RAD51AP1; unperturbed conditions; Western blot
[3] = target: T3, (His)6-RAD51AP1-FLAG (human); assay: pull-down; (His)6-RAD51AP1-FLAG (100 nM) on anti-FLAG M2 affinity resin, RAD54B (100 nM) added; 50 mM Tris-HCl pH 7.5, 150 mM NaCl, 0.1% Triton X-100, 100 µg/ml BSA, DNase I, 4°C; eluted with 3x FLAG peptide; Western blot; both purified

binding [1] | binding [2] | binding [3] | Molecule
binds |  |  | RAD51 (endogenous) (from UniProt Q06609 1-339)
binds | binds |  | RAD54L (endogenous) (protein, UniProt Q92698 1-747) MRRSLAPSQLAKRKPEGRSCDDEDWQPGLVTPRKRKSSSETQIQECFLSPFRKPLSQLTNQPPCLDSSQHEAFIRSILSKPFKVPIPNYQGPLGSRALGLKRAGVRRALHDPLEKDALVLYEPPPLSAHDQLKLDKEKLPVHVVVDPILSKVLRPHQREGVKFLWECVTSRRIPGSHGCIMADEMGLGKTLQCITLMWTLLRQSPECKPEIDKAVVVSPSSLVKNWYNEVGKWLGGRIQPLAIDGGSKDEIDQKLEGFMNQRGARVSSPILIISYETFRLHVGVLQKGSVGLVICDEGHRLKNSENQTYQALDSLNTSRRVLISGTPIQNDLLEYFSLVHFVNSGILGTAHEFKKHFELPILKGRDAAASEADRQLGEERLRELTSIVNRCLIRRTSDILSKYLPVKIEQVVCCRLTPLQTELYKRFLRQAKPAEELLEGKMSVSSLSSITSLKKLCNHPALIYDKCVEEEDGFVGALDLFPPGYSSKALEPQLSGKMLVLDYILAVTRSRSSDKVVLVSNYTQTLDLFEKLCRARRYLYVRLDGTMSIKKRAKVVERFNSPSSPDFVFMLSSKAGGCGLNLIGANRLVMFDPDWNPANDEQAMARVWRDGQKKTCYIYRLLSAGTIEEKIFQRQSHKKALSSCVVDEEQDVERHFSLGELKELFILDEASLSDTHDRLHCRRCVNSRQIRPPPDGSDCTSDLAGWNHCTDKWGLRDEVLQAAWDAASTAITFVFHQRSHEEQRGLR
binds |  |  | RAD54B (endogenous) (protein, UniProt Q9Y620 1-910) MRRSAAPSQLQGNSFKKPKFIPPGRSNPGLNEEITKLNPDIKLFEGVAINNTFLPSQNDLRICSLNLPSEESTREINNRDNCSGKYCFEAPTLATLDPPHTVHSAPKEVAVSKEQEEKSDSLVKYFSVVWCKPSKKKHKKWEGDAVLIVKGKSFILKNLEGKDIGRGIGYKFKELEKIEEGQTLMICGKEIEVMGVISPDDFSSGRCFQLGGGSTAISHSSQVARKCFSNPFKSVCKPSSKENRQNDFQNCKPRHDPYTPNSLVMPRPDKNHQWVFNKNCFPLVDVVIDPYLVYHLRPHQKEGIIFLYECVMGMRMNGRCGAILADEMGLGKTLQCISLIWTLQCQGPYGGKPVIKKTLIVTPGSLVNNWKKEFQKWLGSERIKIFTVDQDHKVEEFIKSIFYSVLIISYEMLLRSLDQIKNIKFDLLICDEGHRLKNSAIKTTTALISLSCEKRIILTGTPIQNDLQEFFALIDFVNPGILGSLSSYRKIYEEPIILSREPSASEEEKELGERRAAELTCLTGLFILRRTQEIINKYLPPKIENVVFCRPGALQIELYRKLLNSQVVRFCLQGLLENSPHLICIGALKKLCNHPCLLFNSIKEKECSSTCDKNEEKSLYKGLLSVFPADYNPLLFTEKESGKLQVLSKLLAVIHELRPTEKVVLVSNYTQTLNILQEVCKRHGYAYTRLDGQTPISQRQQIVDGFNSQHSSFFIFLLSSKAGGVGLNLIGGSHLILYDIDWNPATDIQAMSRVWRDGQKYPVHIYRLLTTGTIEEKIYQRQISKQGLCGAVVDLTKTSEHIQFSVEELKNLFTLHESSDCVTHDLLDCECTGEEVHTGDSLEKFIVSRDCQLGPHHQKSNSLKPLSMSQLKQWKHFSGDHLNLTDPFLERITENVSFIFQNITTQATGT
 |  | binds | RAD54B (purified recombinant) (protein, UniProt Q9Y620 1-910) MRRSAAPSQLQGNSFKKPKFIPPGRSNPGLNEEITKLNPDIKLFEGVAINNTFLPSQNDLRICSLNLPSEESTREINNRDNCSGKYCFEAPTLATLDPPHTVHSAPKEVAVSKEQEEKSDSLVKYFSVVWCKPSKKKHKKWEGDAVLIVKGKSFILKNLEGKDIGRGIGYKFKELEKIEEGQTLMICGKEIEVMGVISPDDFSSGRCFQLGGGSTAISHSSQVARKCFSNPFKSVCKPSSKENRQNDFQNCKPRHDPYTPNSLVMPRPDKNHQWVFNKNCFPLVDVVIDPYLVYHLRPHQKEGIIFLYECVMGMRMNGRCGAILADEMGLGKTLQCISLIWTLQCQGPYGGKPVIKKTLIVTPGSLVNNWKKEFQKWLGSERIKIFTVDQDHKVEEFIKSIFYSVLIISYEMLLRSLDQIKNIKFDLLICDEGHRLKNSAIKTTTALISLSCEKRIILTGTPIQNDLQEFFALIDFVNPGILGSLSSYRKIYEEPIILSREPSASEEEKELGERRAAELTCLTGLFILRRTQEIINKYLPPKIENVVFCRPGALQIELYRKLLNSQVVRFCLQGLLENSPHLICIGALKKLCNHPCLLFNSIKEKECSSTCDKNEEKSLYKGLLSVFPADYNPLLFTEKESGKLQVLSKLLAVIHELRPTEKVVLVSNYTQTLNILQEVCKRHGYAYTRLDGQTPISQRQQIVDGFNSQHSSFFIFLLSSKAGGVGLNLIGGSHLILYDIDWNPATDIQAMSRVWRDGQKYPVHIYRLLTTGTIEEKIYQRQISKQGLCGAVVDLTKTSEHIQFSVEELKNLFTLHESSDCVTHDLLDCECTGEEVHTGDSLEKFIVSRDCQLGPHHQKSNSLKPLSMSQLKQWKHFSGDHLNLTDPFLERITENVSFIFQNITTQATGT
